Results are given in words; binding and its absence hold for the method and conditions named. Some entries that bind do so weakly or less than the wild type.
What was measured:
[1] = target: Tumor necrosis factor alpha (TNF) (human) (UniProt P01375); experiment: confocal immunofluorescence on L929 cells
[2] = target: Tumor necrosis factor alpha (TNF) (human) (UniProt P01375); experiment: ELISA, TNF coated, screen of 33 mAbs
[3] = target: monoclonal antibody 244-12; experiment: competition ELISA on coated TNF
[4] = target: monoclonal antibody 244-12; experiment: competition ELISA: TNF coated, peptide added, then 244-12
[5] = target: monoclonal antibody 244-12; experiment: summary table, column 'binding to cell necrosis-promoting antibodies'
[6] = target: monoclonal antibody 244-12; experiment: ELISA, plate coated with 2 µg/ml of P11-17, anti-mouse IgG-HRP
[7] = target: monoclonal antibody 244-12; experiment: ELISA, plate coated with 2 µg/ml of P11-17

Binder	binding [3]	binding [4]	binding [6]	binding [7]	binding [1]	binding [2]	binding [5]
monoclonal antibody 244-12 (antibody, mouse IgG2b, kappa, V domains shown, It was detected with an anti-mouse IgG secondary antibody) VH: QIQLVQSGPELKKPGETVKISCKASGYTFTNYGMNWVKQAPGKGLKWMGWINTYTGEPTYADDFKGRFAFSLETSANTAYLQINNLRNEGMATYFCARHYRYAWFPYWGQGTLVTVSA VL: DIQMTQSPASLSASVGETVTITCRASGNIHIYLAWYQQKQGKSPQLLVYNAKTLADGVPSRFSGSGSGTQYSLKINSLQPEDFGSYYCQHFWSIPWTFGGGTKLEIKR					binds	binds	
RDNQLVVPSE [polypeptide P12-10]	binds	binds					binds
polypeptide P11-17 (peptide) QLQWLNRRANALLANGVELRDNQLVVPSEGLYLIYSQVLFKGQGCPSTHVLLTHTISRIAVSYQTKVNLLSAIKSPCQRE			binds	binds			binds
P11-17 (mutant, SY mutation) (peptide) QLQWLNRRANALLANGVELRDNQLVVPSEGLYLIYSQVLFKGQGCPSTHVLLTHTISRIAVFHQTKVNLLSAIKSPCQRE							binds

Further lines, with some results ahead:

binding [3]	binding [4]	binding [6]	binding [7]	Binder	binding [1]	binding [2]	binding [5]
binds	binds			NQLVVPSEGL [polypeptide P13-2]			binds
binds	binds			DNQLVVPSEG [polypeptide P13-1]			binds
binds	binds			QLVVPSEGLY [polypeptide P13-3]			binds

Source: patent US20190144517A1 (SHANGHAI JW INFLINHIX, published 2019)
